From US5112519A, “Process for production of biodegradable surfactants and compositions thereof” (Mobil Oil Corporation, priority 1989, dated 1992)

How the values were obtained:
[1] = system: inoculum from Mobil Technical Center and Paulsboro refinery waste treatment plants; assay: Microbiological conversion of tridecanols to carbon dioxide
[2] = Soil redeposition index, unbuilt household liquid laundry detergent, carbon black/oil; conditions: 100° F.
[3] = Soil redeposition index, phosphorous built industrial liquid laundry detergent, carbon black/oil; conditions: 130° F.
[4] = Soil redeposition index, phosphorous built industrial liquid laundry detergent, sebum/dust; conditions: 130° F.

| Molecule | cumulative % biodegraded to carbon dioxide ([1]; 2 days incubated) | cumulative % biodegraded to carbon dioxide ([1]; 7 days incubated) | cumulative % biodegraded to carbon dioxide ([1]; 14 days incubated) | cumulative % biodegraded to carbon dioxide ([1]; 21 days incubated) | cumulative % biodegraded to carbon dioxide ([1]; 28 days incubated) | cumulative % biodegraded to carbon dioxide ([1]; 28 days incubated, listed as Napththalene) | Soil Redeposition Index ([2]; Cotton) | Soil Redeposition Index ([2]; Polyester) | Soil Redeposition Index ([2]; Polyester/Cotton) | Soil Redeposition Index ([3]; Cotton) | Soil Redeposition Index ([3]; Polyester) | Soil Redeposition Index ([3]; Polyester/Cotton) | Soil Redeposition Index ([4]; Cotton) | Soil Redeposition Index ([4]; Polyester) | Soil Redeposition Index ([4]; Polyester/Cotton) |
| --- | --- | --- | --- | --- | --- | --- | --- | --- | --- | --- | --- | --- | --- | --- | --- |
| c1ccc2ccccc2c1 [NAPHTHALENE] | 16.8% | 46.5% | 58.0% | 61.9% | 64.7% | 65% | – | – | – | – | – | – | – | – | – |
| dodecylbenzenesulfonic acid sodium salt [Vista LABS] | – | – | – | – | – | – | 99 | 99 | 99 | 97 | 96 | 99 | 98 | 96 | 98 |
